Measurements as given in patent US20070037828A1, “Pyrazolopyrimidines” (priority 2003, published 2007).
Some entries share one result that the patent states for a list of compounds. At least one compound was matched to its structure with a doubt left.

Legend:
Format in all cases: in vivo
Venturia inaequalis = experiment: Venturia test (apple)/protective; conditions: protective, applied quantity 100 g/ha, analysis 10 days after inoculation, 100% = no infection
Podosphaera leucotricha = experiment: Podosphaera test (apple)/protective; conditions: protective, applied quantity 100 g/ha, analysis 10 days after inoculation, 100% = no infection
Botrytis cinerea = experiment: Botrytis test (beans)/protective; conditions: protective, applied quantity 500 g/ha, analysis 2 days after inoculation, 100% = no infection

| Structure (SMILES) | activity (Venturia inaequalis) | activity (Podosphaera leucotricha) | activity (Botrytis cinerea) |
| --- | --- | --- | --- |
| CC(C)C(C)Nc1c(-c2ncncc2Cl)c(Cl)nc2c(C#N)cnn12 (stereo not shown) [Example 4] | over 90% | – | – |
| CC(Nc1c(-c2ncncc2Cl)c(Cl)nc2c(C#N)cnn12)C(C)(C)C (stereo not shown) [Example 3] | over 90% | over 90% | over 85% |
| CC(Nc1c(-c2ncncc2Cl)c(Cl)nc2c(Cl)cnn12)C(C)(C)C (stereo not shown) [Example 5] | over 90% | over 90% | over 85% |
